Test results from article doi:10.1101/2024.10.11.617944.
These are yes or no findings as the source states them, for the method shown. In cells and extracts the contact can be indirect. Some entries that bind do so weakly or less than the wild type. Where a sequence is shown, tags or fusion partners need not be part of it.

The chains behind the UniProt entries cited, without tags or fusion partners.
UniProt Q9FLI3: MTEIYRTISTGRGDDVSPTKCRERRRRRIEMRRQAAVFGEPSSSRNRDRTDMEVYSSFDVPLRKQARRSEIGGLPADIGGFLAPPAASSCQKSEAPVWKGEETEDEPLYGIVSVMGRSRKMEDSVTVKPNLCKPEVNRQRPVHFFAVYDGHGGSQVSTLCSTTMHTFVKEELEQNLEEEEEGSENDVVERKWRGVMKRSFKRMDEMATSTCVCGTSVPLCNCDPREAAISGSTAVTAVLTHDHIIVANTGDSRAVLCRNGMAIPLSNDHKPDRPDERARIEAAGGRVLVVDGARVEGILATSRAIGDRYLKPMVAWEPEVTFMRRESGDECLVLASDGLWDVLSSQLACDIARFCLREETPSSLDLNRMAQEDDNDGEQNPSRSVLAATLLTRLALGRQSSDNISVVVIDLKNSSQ
UniProt Q39026: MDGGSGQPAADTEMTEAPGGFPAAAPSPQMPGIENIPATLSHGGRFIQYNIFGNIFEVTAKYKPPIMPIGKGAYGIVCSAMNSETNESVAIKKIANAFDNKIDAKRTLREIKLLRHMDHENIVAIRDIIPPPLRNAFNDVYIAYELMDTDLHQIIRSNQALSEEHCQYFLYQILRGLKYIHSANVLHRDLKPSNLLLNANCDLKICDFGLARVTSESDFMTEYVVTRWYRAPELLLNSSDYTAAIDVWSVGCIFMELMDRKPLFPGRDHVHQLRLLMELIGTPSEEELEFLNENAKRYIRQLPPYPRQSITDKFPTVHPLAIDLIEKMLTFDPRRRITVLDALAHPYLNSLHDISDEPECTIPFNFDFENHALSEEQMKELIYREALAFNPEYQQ

Experiments:
Assay in all cases: split reporter
[1] = biological target: AHG1, split YFP fusion (Arabidopsis thaliana) (UniProt Q9FLI3)
[2] = biological target: T1, AHG3, split YFP fusion (Arabidopsis thaliana) (UniProt P49598)
T1 sequence: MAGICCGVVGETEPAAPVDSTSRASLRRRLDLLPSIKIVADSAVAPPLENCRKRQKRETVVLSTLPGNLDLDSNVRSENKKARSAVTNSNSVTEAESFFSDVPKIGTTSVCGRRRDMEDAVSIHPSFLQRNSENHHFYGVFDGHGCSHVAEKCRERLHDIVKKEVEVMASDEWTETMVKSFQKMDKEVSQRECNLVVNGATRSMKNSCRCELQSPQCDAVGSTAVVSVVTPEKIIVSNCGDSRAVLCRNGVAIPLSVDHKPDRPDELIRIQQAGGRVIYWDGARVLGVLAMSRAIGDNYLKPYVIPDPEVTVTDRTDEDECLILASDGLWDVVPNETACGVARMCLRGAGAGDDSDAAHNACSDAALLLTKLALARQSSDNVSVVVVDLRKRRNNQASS

[3] = biological target: T2, GRF3 (14-3-3 psi), split YFP fusion (Arabidopsis thaliana) (UniProt P42644)
T2 sequence: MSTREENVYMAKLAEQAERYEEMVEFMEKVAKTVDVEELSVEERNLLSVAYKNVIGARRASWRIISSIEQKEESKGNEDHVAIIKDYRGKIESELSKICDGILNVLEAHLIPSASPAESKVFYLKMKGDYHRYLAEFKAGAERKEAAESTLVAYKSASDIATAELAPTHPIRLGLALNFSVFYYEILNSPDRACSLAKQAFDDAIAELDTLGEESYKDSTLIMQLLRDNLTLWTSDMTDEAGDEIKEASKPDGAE

[4] = biological target: T3, GRF4 (14-3-3 phi), split YFP fusions (Arabidopsis thaliana) (UniProt P46077)
T3 sequence: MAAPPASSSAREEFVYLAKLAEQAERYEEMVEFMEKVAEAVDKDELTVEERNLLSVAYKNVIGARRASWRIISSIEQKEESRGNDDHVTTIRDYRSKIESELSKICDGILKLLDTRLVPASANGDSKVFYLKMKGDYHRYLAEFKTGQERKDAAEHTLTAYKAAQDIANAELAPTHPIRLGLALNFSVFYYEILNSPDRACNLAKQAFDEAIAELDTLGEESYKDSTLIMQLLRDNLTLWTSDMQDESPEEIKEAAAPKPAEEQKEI

[5] = biological target: T4, GRF7 (14-3-3 nu), split YFP fusion (Arabidopsis thaliana) (UniProt Q96300)
T4 sequence: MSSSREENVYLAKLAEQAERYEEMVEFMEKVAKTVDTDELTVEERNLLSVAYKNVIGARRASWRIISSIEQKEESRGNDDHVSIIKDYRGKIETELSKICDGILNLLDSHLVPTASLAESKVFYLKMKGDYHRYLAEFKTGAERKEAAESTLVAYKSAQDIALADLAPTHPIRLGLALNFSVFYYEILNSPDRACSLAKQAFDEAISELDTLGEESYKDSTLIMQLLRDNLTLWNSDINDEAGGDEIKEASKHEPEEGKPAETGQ

[6] = biological target: T5, MPK3, split YFP fusion (Arabidopsis thaliana) (UniProt Q39023)
T5 sequence: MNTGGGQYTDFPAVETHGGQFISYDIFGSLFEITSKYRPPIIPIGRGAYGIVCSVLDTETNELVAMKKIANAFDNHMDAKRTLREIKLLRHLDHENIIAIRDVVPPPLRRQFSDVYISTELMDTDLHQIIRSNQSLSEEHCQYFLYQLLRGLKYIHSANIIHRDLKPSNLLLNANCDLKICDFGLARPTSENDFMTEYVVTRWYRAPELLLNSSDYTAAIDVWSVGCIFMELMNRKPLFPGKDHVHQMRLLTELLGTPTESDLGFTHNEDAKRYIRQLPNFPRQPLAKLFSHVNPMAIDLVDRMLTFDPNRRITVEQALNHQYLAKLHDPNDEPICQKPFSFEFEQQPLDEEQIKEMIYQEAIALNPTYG

[7] = biological target: MPK6, split YFP fusion (Arabidopsis thaliana) (UniProt Q39026)
[8] = biological target: T6, PYL2, split YFP fusion (Arabidopsis thaliana) (UniProt O80992)
T6 sequence: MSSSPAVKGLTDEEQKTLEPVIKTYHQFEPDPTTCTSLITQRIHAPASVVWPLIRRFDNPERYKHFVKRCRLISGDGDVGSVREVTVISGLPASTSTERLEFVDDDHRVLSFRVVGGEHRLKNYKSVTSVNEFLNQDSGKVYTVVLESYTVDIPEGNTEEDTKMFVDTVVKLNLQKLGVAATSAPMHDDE

[9] = biological target: T7, PYL9, split YFP fusion (Arabidopsis thaliana) (UniProt Q84MC7)
T7 sequence: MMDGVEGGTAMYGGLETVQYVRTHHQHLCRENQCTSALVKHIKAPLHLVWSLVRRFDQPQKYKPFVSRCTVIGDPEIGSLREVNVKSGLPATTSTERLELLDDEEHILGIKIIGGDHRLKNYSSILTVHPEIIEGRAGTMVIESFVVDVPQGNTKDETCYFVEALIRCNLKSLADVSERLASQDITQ

[10] = biological target: T8, SnRK2.3, split YFP fusion (Arabidopsis thaliana) (UniProt Q39193)
T8 sequence: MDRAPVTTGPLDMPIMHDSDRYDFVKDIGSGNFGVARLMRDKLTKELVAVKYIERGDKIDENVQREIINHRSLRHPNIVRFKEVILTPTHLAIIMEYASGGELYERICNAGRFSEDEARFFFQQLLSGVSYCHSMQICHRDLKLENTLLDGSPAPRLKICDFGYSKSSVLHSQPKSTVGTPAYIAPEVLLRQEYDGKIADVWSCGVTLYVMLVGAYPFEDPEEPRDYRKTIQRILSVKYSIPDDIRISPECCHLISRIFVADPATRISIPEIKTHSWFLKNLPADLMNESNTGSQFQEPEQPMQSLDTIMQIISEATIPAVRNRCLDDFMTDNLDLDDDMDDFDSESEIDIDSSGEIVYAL

[11] = biological target: T9, SnRK2.6, split YFP fusion (Arabidopsis thaliana) (UniProt Q940H6)
T9 sequence: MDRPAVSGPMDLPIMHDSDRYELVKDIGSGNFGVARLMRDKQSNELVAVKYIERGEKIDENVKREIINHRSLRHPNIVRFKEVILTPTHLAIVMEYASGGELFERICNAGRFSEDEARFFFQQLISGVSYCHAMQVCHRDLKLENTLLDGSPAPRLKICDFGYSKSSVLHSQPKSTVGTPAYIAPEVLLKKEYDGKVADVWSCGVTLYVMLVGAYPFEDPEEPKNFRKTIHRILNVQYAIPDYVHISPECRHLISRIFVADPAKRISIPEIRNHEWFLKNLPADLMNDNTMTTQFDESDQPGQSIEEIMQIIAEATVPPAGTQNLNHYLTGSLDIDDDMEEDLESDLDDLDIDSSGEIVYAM

[12] = biological target: T10, MPK7, split YFP fusion (Arabidopsis thaliana) (UniProt Q39027)
T10 sequence: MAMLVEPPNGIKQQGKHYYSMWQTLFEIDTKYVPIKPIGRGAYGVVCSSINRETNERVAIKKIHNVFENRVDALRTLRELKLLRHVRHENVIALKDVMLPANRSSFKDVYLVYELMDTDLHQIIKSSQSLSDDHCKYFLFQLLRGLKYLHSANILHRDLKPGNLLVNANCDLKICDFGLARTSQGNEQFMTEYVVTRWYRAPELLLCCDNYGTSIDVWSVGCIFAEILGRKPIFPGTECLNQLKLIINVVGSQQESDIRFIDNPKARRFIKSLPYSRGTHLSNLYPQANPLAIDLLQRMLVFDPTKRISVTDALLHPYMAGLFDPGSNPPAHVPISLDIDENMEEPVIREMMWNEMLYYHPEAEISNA

[13] = biological target: T11, MPK3, split YFP fusion (Arabidopsis thaliana), Q39023; conditions: remark: other sources report otherwise
T11 chain: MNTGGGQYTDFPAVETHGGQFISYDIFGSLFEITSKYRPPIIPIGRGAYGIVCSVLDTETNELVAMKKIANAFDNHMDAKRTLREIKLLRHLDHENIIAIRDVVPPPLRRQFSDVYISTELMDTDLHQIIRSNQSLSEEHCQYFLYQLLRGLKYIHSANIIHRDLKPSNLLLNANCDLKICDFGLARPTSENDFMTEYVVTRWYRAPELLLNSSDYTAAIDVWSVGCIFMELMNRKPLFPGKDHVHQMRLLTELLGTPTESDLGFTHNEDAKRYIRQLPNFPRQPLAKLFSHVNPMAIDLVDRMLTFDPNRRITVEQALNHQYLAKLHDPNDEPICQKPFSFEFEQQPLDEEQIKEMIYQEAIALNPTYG

Binder	binding [1]	binding [2]	binding [3]	binding [4]	binding [5]	binding [6]	binding [7]	binding [8]	binding [9]	binding [10]	binding [11]	binding [12]	binding [13]
AFP1, split YFP fusion (protein, UniProt Q9LQ98 1-345) MAEANERSKEMARSNSCVFPRDLLQRFISNSVEGEDDDEEEDDDEIELNLGLSLGGRFGVDKSNKLVRSSSVVVTMPLFREDHHHHQAAAMITTKVSTETVAGATRGTGLMRTTSLPAESEEEWRKRKEMQTLRRMAAKRRRSEKLRTGVGGGNSNNPEEAATATASRRRGRPSSGLPRWSATANKSGLLRQHSAGLDSLQVSGESLGGGRAAGSSSSVSELETKASSDEARSLPSTTQPQQETTTKPTNRLRRLSSVDMNMKMEPQGKGKSEMPCVFTKGDGPNGKRVDGILYRYGSGEEVRIMCVCHGDFLSPADFVKHAGGPHVDHPLRHIVVNTSSPSNLL	binds	binds weakly	binds	binds	binds weakly	binds	binds	binds	binds	binds	binds		
AFP2, split YFP fusion (protein, UniProt Q9LMX5 1-348) MGEASRQQRAWNREMTVTTNLSLDIDKYPRDLLRGFMSENGGGRVFHGGETNCDDESTIELNLGLSLGGRFGVDKTPRKLKRSSSVLDTVPFNDSTVAEPENYTVGLERTTSLPAEMEEEWRKRKEMQSLRRMEAKRRRCEKQSFRVGNSDDQTVSFENERWVTASKSGFLQRHLVSSNRQVCGVDSDGGGATGGGSSSSLSELDNKNQQGSSNSCNDERSPKIVAGCSSNSGSQGTERPSVTRANKVNENENEKRVRSEDSVDRKGKGMATSTGLVDMPCVFTKGDGPNGRRVDGILYKYGKGEEVRIMCICHGSFLTPAEFVKHGGGGDVDRPLRHIVVNTSSSTF	binds	binds weakly	binds	binds		binds	binds	binds	binds	binds	binds	binds	
GRF4 (14-3-3 phi), split YFP fusions, P46077 1-267 (protein) MAAPPASSSAREEFVYLAKLAEQAERYEEMVEFMEKVAEAVDKDELTVEERNLLSVAYKNVIGARRASWRIISSIEQKEESRGNDDHVTTIRDYRSKIESELSKICDGILKLLDTRLVPASANGDSKVFYLKMKGDYHRYLAEFKTGQERKDAAEHTLTAYKAAQDIANAELAPTHPIRLGLALNFSVFYYEILNSPDRACNLAKQAFDEAIAELDTLGEESYKDSTLIMQLLRDNLTLWTSDMQDESPEEIKEAAAPKPAEEQKEI													binds
